This is one part of the list.
Legend:
Assay in all cases: log2 fold change, soluble protein after heating vs DMSO (PISA); higher = thermal stabilisation; K562 lysate, 10 uM; active = over 0.2 and 3.5 SD of the protein, either way, in both replicates (recomputed)
lapatinib = compound: CS(=O)(=O)CCNCc1ccc(-c2ccc3ncnc(Nc4ccc(OCc5cccc(F)c5)c(Cl)c4)c3c2)o1 [lapatinib]
Method in brief: (§1)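 To prepare the extract, K562 pellets were dounce-homogenised in PBS pH 7.4 with 1 mM MgCl2, giving crude material at 1 mg/mL protein. This was treated with 10 μM compound for 30 min, then heated in aliquots for 3 min over 48°C-58°C before pooling and addition of NP-40 to 0.5% at 4°C. Centrifugation at 21,000xg for 90 min left soluble protein in the supernatant, which TMTpro 16plex LC-MS/MS quantified with equalised channel sums. Results are log-two fold changes in thermal stability compared with solvent controls, from duplicates.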

The chains behind the UniProt entries cited, without tags or fusion partners. Where a name states a change or a piece, a line headed by the entry shows the natural chain unless it says otherwise.
UniProt Q7L099: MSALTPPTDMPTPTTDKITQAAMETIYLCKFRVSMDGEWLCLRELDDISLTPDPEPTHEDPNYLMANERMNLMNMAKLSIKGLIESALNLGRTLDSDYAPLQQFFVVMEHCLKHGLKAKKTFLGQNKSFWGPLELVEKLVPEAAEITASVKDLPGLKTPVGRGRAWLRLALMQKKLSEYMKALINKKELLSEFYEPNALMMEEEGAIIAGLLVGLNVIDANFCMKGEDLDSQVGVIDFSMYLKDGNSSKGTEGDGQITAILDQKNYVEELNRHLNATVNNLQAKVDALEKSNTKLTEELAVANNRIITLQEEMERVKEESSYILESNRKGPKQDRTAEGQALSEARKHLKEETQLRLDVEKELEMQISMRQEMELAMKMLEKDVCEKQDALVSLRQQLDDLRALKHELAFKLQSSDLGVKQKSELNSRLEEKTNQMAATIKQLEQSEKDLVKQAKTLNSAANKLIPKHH
UniProt Q96P16: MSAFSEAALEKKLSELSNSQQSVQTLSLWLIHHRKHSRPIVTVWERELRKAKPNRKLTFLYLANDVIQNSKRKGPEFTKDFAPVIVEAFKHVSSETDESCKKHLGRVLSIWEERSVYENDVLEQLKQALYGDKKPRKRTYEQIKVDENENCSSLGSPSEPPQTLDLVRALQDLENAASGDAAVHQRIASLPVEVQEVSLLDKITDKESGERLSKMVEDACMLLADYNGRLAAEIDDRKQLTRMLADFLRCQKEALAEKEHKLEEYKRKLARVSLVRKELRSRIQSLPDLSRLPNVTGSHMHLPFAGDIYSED
UniProt Q9H633: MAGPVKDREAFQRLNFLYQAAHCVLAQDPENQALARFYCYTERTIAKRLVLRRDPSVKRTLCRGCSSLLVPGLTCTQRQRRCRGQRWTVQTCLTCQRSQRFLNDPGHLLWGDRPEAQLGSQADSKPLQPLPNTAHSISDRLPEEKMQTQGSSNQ
UniProt P57060: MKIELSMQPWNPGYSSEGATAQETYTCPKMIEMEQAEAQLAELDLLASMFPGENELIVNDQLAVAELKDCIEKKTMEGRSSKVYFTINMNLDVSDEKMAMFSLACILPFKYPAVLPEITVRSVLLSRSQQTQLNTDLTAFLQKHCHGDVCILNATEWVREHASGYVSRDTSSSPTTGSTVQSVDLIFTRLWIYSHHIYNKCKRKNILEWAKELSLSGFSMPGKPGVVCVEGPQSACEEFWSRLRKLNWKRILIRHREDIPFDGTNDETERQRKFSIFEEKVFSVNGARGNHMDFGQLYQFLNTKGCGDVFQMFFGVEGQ
UniProt O43159: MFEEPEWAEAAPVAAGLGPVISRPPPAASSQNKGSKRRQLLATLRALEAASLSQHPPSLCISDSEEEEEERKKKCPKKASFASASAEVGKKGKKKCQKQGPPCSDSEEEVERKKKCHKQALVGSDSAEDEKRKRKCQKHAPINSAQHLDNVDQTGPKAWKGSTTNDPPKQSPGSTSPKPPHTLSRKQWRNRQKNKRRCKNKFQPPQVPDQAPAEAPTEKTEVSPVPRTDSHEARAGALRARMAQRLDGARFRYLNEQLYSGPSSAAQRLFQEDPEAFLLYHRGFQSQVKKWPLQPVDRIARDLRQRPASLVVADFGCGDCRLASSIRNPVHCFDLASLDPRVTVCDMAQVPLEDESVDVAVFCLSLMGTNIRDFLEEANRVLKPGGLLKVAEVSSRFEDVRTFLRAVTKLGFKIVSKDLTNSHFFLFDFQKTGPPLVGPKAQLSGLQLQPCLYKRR
UniProt Q96DX4: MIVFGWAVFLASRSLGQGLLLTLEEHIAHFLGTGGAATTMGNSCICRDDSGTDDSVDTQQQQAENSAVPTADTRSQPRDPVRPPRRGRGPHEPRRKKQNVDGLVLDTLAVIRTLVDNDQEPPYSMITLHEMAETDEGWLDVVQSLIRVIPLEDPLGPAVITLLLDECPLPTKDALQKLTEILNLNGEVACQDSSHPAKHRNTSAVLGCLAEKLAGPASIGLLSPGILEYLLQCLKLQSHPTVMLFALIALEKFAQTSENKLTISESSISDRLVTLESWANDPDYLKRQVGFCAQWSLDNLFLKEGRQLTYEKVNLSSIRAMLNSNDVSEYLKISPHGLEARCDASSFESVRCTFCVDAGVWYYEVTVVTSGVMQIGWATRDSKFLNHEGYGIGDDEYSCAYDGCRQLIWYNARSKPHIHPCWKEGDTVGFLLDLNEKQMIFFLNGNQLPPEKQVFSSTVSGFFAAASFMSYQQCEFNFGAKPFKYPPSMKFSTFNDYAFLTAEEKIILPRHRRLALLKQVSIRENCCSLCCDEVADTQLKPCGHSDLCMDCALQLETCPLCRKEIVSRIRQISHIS
UniProt O00442: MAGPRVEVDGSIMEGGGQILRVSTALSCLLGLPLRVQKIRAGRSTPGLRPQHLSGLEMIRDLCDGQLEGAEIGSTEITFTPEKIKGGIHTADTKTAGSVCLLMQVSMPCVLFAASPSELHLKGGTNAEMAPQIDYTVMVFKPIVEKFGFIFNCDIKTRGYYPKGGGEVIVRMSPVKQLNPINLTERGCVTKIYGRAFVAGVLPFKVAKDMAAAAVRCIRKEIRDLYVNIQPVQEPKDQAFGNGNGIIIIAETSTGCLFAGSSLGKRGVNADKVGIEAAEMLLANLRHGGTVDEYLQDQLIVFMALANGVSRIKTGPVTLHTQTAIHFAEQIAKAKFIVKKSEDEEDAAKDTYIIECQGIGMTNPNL
UniProt Q01196, whole entry, looked up: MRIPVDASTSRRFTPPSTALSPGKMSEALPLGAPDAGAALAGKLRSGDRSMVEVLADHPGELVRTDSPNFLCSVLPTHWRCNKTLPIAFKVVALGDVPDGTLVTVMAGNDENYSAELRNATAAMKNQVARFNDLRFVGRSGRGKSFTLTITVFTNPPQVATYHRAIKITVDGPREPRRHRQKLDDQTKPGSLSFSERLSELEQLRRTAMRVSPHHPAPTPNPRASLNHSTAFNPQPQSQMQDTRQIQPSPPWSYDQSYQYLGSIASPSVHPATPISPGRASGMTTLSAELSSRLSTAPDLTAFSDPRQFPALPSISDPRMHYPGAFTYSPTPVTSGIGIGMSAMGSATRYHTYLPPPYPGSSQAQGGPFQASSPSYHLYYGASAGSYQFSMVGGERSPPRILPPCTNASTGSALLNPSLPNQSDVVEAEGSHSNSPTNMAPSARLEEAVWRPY

pictilisib = compound: CS(=O)(=O)N1CCN(Cc2cc3nc(-c4cccc5[nH]ncc45)nc(N4CCOCC4)c3s2)CC1 [pictilisib]
Method in brief: as §1

crizotinib = compound: C[C@@H](Oc1cc(-c2cnn(C3CCNCC3)c2)cnc1N)c1c(Cl)ccc(F)c1Cl [crizotinib]
Method in brief: as §1

[1] = compound: C[C@H](C1=CC=C(C=C1)C(=O)NC2=C3C=CNC3=NC=C2)N
Method in brief: as §1

duvelisib = compound: C[C@H](Nc1ncnc2nc[nH]c12)c1cc2cccc(Cl)c2c(=O)n1-c1ccccc1 [duvelisib]
Method in brief: as §1

gandotinib = compound: Cc1cc(Nc2cc(CN3CCOCC3)c3nc(C)c(Cc4ccc(Cl)cc4F)n3n2)n[nH]1 [gandotinib]
Method in brief: as §1

doramapimod = compound: Cc1ccc(-n2nc(C(C)(C)C)cc2NC(=O)Nc2ccc(OCCN3CCOCC3)c3ccccc23)cc1 [doramapimod]
Method in brief: as §1

bafetinib = compound: Cc1ccc(NC(=O)c2ccc(CN3CC[C@H](N(C)C)C3)c(C(F)(F)F)c2)cc1Nc1nccc(-c2cncnc2)n1 [bafetinib]
Method in brief: as §1

[2] = compound: Cc1cccc(CC(=O)N2CCc3c2ccc(-c2cn(C)c4ncnc(N)c24)c3F)n1
Method in brief: as §1

dasatinib = compound: Cc1nc(Nc2ncc(C(=O)Nc3c(C)cccc3Cl)s2)cc(N2CCN(CCO)CC2)n1 [dasatinib]
Method in brief: as §1

[3] = compound: Cn1cc(-c2ccc3c(c2)CCN3C(=O)Cc2cccc(C(F)(F)F)c2)c2c(N)ncnc21
Method in brief: as §1

quisinostat = compound: Cn1cc(CNCC2CCN(c3ncc(C(=O)NO)cn3)CC2)c2ccccc21 [quisinostat]
Method in brief: as §1

[4] = compound: NC(=O)Nc1cc(-c2cccc(F)c2)sc1C(=O)N[C@H]1CCCNC1
Method in brief: as §1

[5] = compound: NC(=O)c1cnc(N[C@@H]2CCCC[C@@H]2N)nc1Nc1cccc(-n2nccn2)c1
Method in brief: as §1

[6] = compound: NC1(c2ccc(-c3nc4ccn5c(=O)[nH]nc5c4cc3-c3ccccc3)cc2)CCC1
Method in brief: as §1

tozasertib = compound: Cc1cc(Nc2cc(N3CCN(C)CC3)nc(Sc3ccc(NC(=O)C4CC4)cc3)n2)n[nH]1 [tozasertib]
Method in brief: as §1

nilotinib = compound: Cc1cn(-c2cc(NC(=O)c3ccc(C)c(Nc4nccc(-c5cccnc5)n4)c3)cc(C(F)(F)F)c2)cn1 [nilotinib]
Method in brief: as §1

[7] = compound: Cc1nc(Nc2n[nH]c3c2CN(C(=O)N[C@H](CN(C)C)c2ccccc2)C3(C)C)c2sccc2n1
Method in brief: as §1

[8] = compound: Cc1ncc(-c2ccnc(Nc3ccc(S(C)(=O)=O)cc3)n2)n1C(C)C
Method in brief: as §1

tipifarnib = compound: Cn1cncc1[C@@](N)(c1ccc(Cl)cc1)c1ccc2c(c1)c(-c1cccc(Cl)c1)cc(=O)n2C [tipifarnib]
Method in brief: as §1

Target | log2 fold change (lapatinib) | log2 fold change (pictilisib) | log2 fold change (crizotinib) | log2 fold change [1] | log2 fold change (duvelisib) | log2 fold change (gandotinib) | log2 fold change (doramapimod) | log2 fold change (bafetinib) | log2 fold change [2] | log2 fold change (dasatinib) | log2 fold change [3] | log2 fold change (quisinostat) | log2 fold change [4] | log2 fold change [5] | log2 fold change [6] | log2 fold change (tozasertib) | log2 fold change (nilotinib) | log2 fold change [7] | log2 fold change [8] | log2 fold change (tipifarnib)
RUFY3 isoform 2 (UniProt Q7L099) | inactive: -0.117 | inactive: -0.032 | inactive: 0.068 | inactive: 0.409 | inactive: 0.04 | inactive: -0.106 | inactive: -0.216 | inactive: -0.064 | inactive: -0.062 | inactive: 0.038 | inactive: -0.013 | inactive: -0.087 | inactive: 0.189 | inactive: 0.329 | inactive: -0.059 |  |  |  |  | 
RPRD1A (UniProt Q96P16) | inactive: -0.041 | inactive: -0.017 | inactive: -0.009 | inactive: 0.057 | inactive: 0.029 | inactive: -0.023 | inactive: 0.056 | inactive: -0.02 | inactive: 0.007 | inactive: -0.01 | inactive: 0.008 | inactive: -0.043 | inactive: 0.018 | inactive: -0.034 | inactive: -0.016 | inactive: -0.01 | inactive: 0.08 | inactive: 0.032 | inactive: 0.023 | inactive: -0.015
RPL9 (UniProt P32969) | inactive: -0.005 | inactive: 0.016 | inactive: 0.042 | inactive: 0.072 | inactive: 0 | inactive: -0.099 | inactive: -0.019 | inactive: 0.003 | inactive: -0.056 | inactive: 0.009 | inactive: -0.025 | inactive: 0.083 | inactive: -0.038 | inactive: -0.031 | inactive: 0.002 | inactive: -0.019 | inactive: -0.001 | inactive: 0.014 | inactive: -0.016 | inactive: 0.04
RPP21 isoform 4 (UniProt Q9H633) | inactive: 0.006 | inactive: 0 | inactive: -0.049 | inactive: -0.124 | inactive: 0.115 | inactive: 0.06 | inactive: -0.049 | inactive: 0.015 | inactive: 0.036 | inactive: -0.051 | inactive: 0.091 | inactive: -0.158 | inactive: -0.025 | inactive: 0.018 | inactive: 0.032 | inactive: -0.005 | inactive: 0.158 | inactive: -0.237 | inactive: 0.038 | inactive: 0.079
RWDD2B (UniProt P57060) | inactive: 0.029 | inactive: -0.15 | inactive: 0.141 |  | inactive: -0.007 |  | inactive: -0.005 | inactive: 0.089 |  | inactive: 0.05 | inactive: -0.02 | inactive: 0.163 | inactive: 0.017 | inactive: 0.042 | inactive: 0.068 | inactive: -0.044 | inactive: 0.066 | inactive: -0.026 | inactive: -0.054 | inactive: -0.264
RRP8 (UniProt O43159) | inactive: 0.001 | inactive: 0.009 | inactive: -0.024 | inactive: -0.063 | inactive: 0.055 | inactive: -0.146 | inactive: 0.043 | inactive: -0.04 | inactive: -0.014 | inactive: -0.015 | inactive: -0.038 | inactive: -0.141 | inactive: 0.045 | inactive: 0.02 | inactive: 0.019 | inactive: 0.007 | inactive: 0.054 | inactive: -0.065 | inactive: -0.019 | inactive: -0.001
RPL36AL (UniProt Q969Q0) | inactive: 0.05 | inactive: 0.031 | inactive: 0.216 | inactive: 0.01 | inactive: -0.033 | inactive: -0.038 | inactive: -0.131 | inactive: 0.137 | inactive: 0.003 | inactive: 0.094 | inactive: 0.04 | active: 0.329 | inactive: 0.01 | inactive: -0.026 | inactive: -0.009 | inactive: 0.047 | inactive: 0.034 | inactive: 0.038 | inactive: 0.055 | inactive: 0.058
RSPRY1 (UniProt Q96DX4) | inactive: -0.031 | inactive: -0.007 | inactive: -0.009 | inactive: -0.085 | inactive: 0.042 | inactive: 0.032 | inactive: -0.003 | inactive: -0.04 | inactive: 0.088 | inactive: -0.029 | inactive: 0.048 | inactive: -0.034 | inactive: -0.02 | inactive: -0.03 | inactive: -0.019 | inactive: -0.002 | inactive: 0.058 | inactive: -0.07 | inactive: 0.062 | inactive: -0.168
RPS16 (UniProt P62249) | inactive: 0.001 | inactive: 0.016 | inactive: 0.029 | inactive: 0.14 | inactive: 0.022 | inactive: -0.084 | inactive: -0.005 | inactive: 0.041 | inactive: -0.071 | inactive: -0.023 | inactive: 0.011 | inactive: 0.077 | inactive: -0.023 | inactive: -0.006 | inactive: 0.038 | inactive: 0.041 | inactive: -0.04 | inactive: 0.002 | inactive: -0.096 | inactive: 0.033
RTCA (UniProt O00442) | inactive: 0.005 | inactive: 0.006 | inactive: -0.002 | inactive: -0.029 | inactive: 0.016 | inactive: 0.039 | inactive: -0.014 | inactive: -0.024 | inactive: -0.025 | inactive: -0.016 | inactive: 0 | inactive: -0.011 | inactive: -0.009 | inactive: -0.012 | inactive: 0.013 | inactive: -0.072 | inactive: 0.026 | inactive: 0.027 | inactive: -0.012 | inactive: -0.036
RUNX1 isoform 8 (UniProt Q01196) | inactive: -0.049 | inactive: -0.049 | inactive: 0.132 | inactive: -0.017 | inactive: 0.015 | inactive: 0.003 | inactive: 0.048 | inactive: -0.002 | inactive: -0.056 | inactive: -0.01 | inactive: 0.072 | inactive: -0.022 | inactive: 0.108 | inactive: 0.011 | inactive: 0.101 | inactive: 0.064 | inactive: -0.016 | inactive: 0.021 | inactive: 0.002 | inactive: -0.054
RYR1 (UniProt P21817) | inactive: 0.028 | inactive: -0.048 | inactive: -0.229 | inactive: -0.017 | inactive: -0.032 | inactive: -0.027 | inactive: 0.112 | inactive: -0.13 | inactive: 0.016 | inactive: -0.032 | inactive: -0.061 | active: -0.392 | inactive: 0.046 | inactive: 0.029 | inactive: 0.003 | inactive: 0.04 |  |  |  | 
RPS27 (UniProt P42677) | inactive: -0.074 | inactive: 0.013 | inactive: 0.002 | inactive: -0.121 | inactive: -0.009 | inactive: 0.164 | inactive: -0.088 | inactive: -0.008 | inactive: -0.071 | inactive: -0.046 | inactive: 0.011 | inactive: 0.045 | inactive: 0.05 | inactive: -0.062 | inactive: 0.011 | inactive: -0.012 | inactive: 0.063 | inactive: -0.08 | inactive: 0.003 | inactive: 0.027

Part of the list above in a different format.

| Target | log2 fold change (lapatinib) | log2 fold change (pictilisib) | log2 fold change (crizotinib) | log2 fold change [1] | log2 fold change (duvelisib) | log2 fold change (gandotinib) | log2 fold change (doramapimod) | log2 fold change (bafetinib) | log2 fold change [2] | log2 fold change (dasatinib) | log2 fold change [3] | log2 fold change (quisinostat) | log2 fold change [4] | log2 fold change [5] | log2 fold change [6] | log2 fold change (tozasertib) | log2 fold change (nilotinib) | log2 fold change [7] | log2 fold change [8] | log2 fold change (tipifarnib) |
| --- | --- | --- | --- | --- | --- | --- | --- | --- | --- | --- | --- | --- | --- | --- | --- | --- | --- | --- | --- | --- |
| RPL9 (UniProt P32969) | inactive: -0.005 | inactive: 0.016 | inactive: 0.042 | inactive: 0.072 | inactive: 0 | inactive: -0.099 | inactive: -0.019 | inactive: 0.003 | inactive: -0.056 | inactive: 0.009 | inactive: -0.025 | inactive: 0.083 | inactive: -0.038 | inactive: -0.031 | inactive: 0.002 | inactive: -0.019 | inactive: -0.001 | inactive: 0.014 | inactive: -0.016 | inactive: 0.04 |
| RPS16 (UniProt P62249) | inactive: 0.001 | inactive: 0.016 | inactive: 0.029 | inactive: 0.14 | inactive: 0.022 | inactive: -0.084 | inactive: -0.005 | inactive: 0.041 | inactive: -0.071 | inactive: -0.023 | inactive: 0.011 | inactive: 0.077 | inactive: -0.023 | inactive: -0.006 | inactive: 0.038 | inactive: 0.041 | inactive: -0.04 | inactive: 0.002 | inactive: -0.096 | inactive: 0.033 |
| RUNX1 isoform 8 (UniProt Q01196) | inactive: -0.049 | inactive: -0.049 | inactive: 0.132 | inactive: -0.017 | inactive: 0.015 | inactive: 0.003 | inactive: 0.048 | inactive: -0.002 | inactive: -0.056 | inactive: -0.01 | inactive: 0.072 | inactive: -0.022 | inactive: 0.108 | inactive: 0.011 | inactive: 0.101 | inactive: 0.064 | inactive: -0.016 | inactive: 0.021 | inactive: 0.002 | inactive: -0.054 |

From the supplement of paper PMC10849652
